Source: paper PMC9283627, “Auxotrophic and prototrophic conditional genetic networks reveal the rewiring of transcription factors in Escherichia coli”
These are yes or no findings as the source states them, for the method shown. For some assays here: In cells and extracts the contact can be indirect. Some entries that bind do so weakly or less than the wild type. Where a sequence is shown, tags or fusion partners need not be part of it. Values belong to the binder of their own block, whether it stands above or below them.

How the values were obtained:
[1] = target: T1, YneJ, bacterial two-hybrid fusion (E. coli) (UniProt P77309); assay: two-hybrid; bacterial two-hybrid (CyaA reconstitution; pUT18C, pKT25) in E. coli BTH101, M63 maltose agar with IPTG and X-gal, 32 °C, 16-24 h
T1 sequence: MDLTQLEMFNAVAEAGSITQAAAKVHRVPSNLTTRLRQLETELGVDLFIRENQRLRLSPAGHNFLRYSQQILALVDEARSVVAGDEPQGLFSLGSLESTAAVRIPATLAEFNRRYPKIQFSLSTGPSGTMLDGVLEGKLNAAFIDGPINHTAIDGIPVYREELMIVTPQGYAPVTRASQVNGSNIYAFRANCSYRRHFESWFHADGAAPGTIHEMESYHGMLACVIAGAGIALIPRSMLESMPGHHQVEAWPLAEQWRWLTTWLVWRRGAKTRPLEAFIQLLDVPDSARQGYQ

[2] = target: T2, YneJ with a chromosomal C-terminal FLAG3 tag (E. coli) (UniProt P77309); assay: co-IP; chromosomal YneJ-FLAG3 strain transformed with pCA24N His6-AcrR, 1 mM IPTG; RM and M9-tryptone conditions; MACS microbead immunoprecipitation, blot with His6-tag antibody
T2 sequence: T1 sequence

- binding [1]: binds
B1: AcrR, bacterial two-hybrid fusion (protein, UniProt P0ACS9 1-215)
chain: MARKTKQEAQETRQHILDVALRLFSQQGVSSTSLGEIAKAAGVTRGAIYWHFKDKSDLFSEIWELSESNIGELELEYQAKFPGDPLSVLREILIHVLESTVTEERRRLLMEIIFHKCEFVGEMAVVQQAQRNLCLESYDRIEQTLKHCIEAKMLPADLMTRRAAIIMRGYISGLMENWLFAPQSFDLKKEARDYVAILLEMYLLCPTLRNPATNE

- binding [2]: binds
B2: His6-tagged AcrR (protein, UniProt P0ACS9 1-215)
chain: B1 chain
